{"source": "patent US20230242871A1", "about": "“GENERATION OF PRIMORDIAL GERM CELLS AND METHODS OF USING THE SAME” (The Board of Trustees of the Leland Stanfor Junior …, priority 2020, published 2023)", "assay_in_all_cases": "High-throughput cell-surface marker screening (LEGENDScreen), %PE+", "format_in_all_cases": "cell-based, human", "settings_in_all_cases": "percentage of cells bound to the PE-conjugated antibody (LEGENDScreen)", "key": {"[1]": {"system": "undifferentiated hPSC (D0)"}, "D3.5 SOX17-GFP+ PGCs": {"system": "D3.5 SOX17-GFP+ PGCs"}, "D3.5 SOX17-GFP- non-PGCs": {"system": "D3.5 SOX17-GFP- non-PGCs"}}, "data": [{"molecule": "CD2 (protein, UniProt P06729 25-351, looked up) T-cell surface antigen CD2: KEITNALETWGALGQDINLDIPSFQMSDDIDDIKWEKTSDKKKIAQFRKEKETFKEKDTYKLFKNGTLKIKHLKTDDQDIYKVSIYDTKGKNVLEKIFDLKIQERVSKPKISWTCINTTLTCEVMNGTDPELNLYQDGKHLKLSQRVITHKWTTSLSAKFKCTAGNKVSKESSVEPVSCPEKGLDIYLIIGICGGGSLLMVFVALLVFYITKRKKQRSRRNDEELETRAHRVATEERGRKPHQIPASTPQNPATSQHPPPPPGHRSQAPSHRPPPPGHRVQHQPQKRPPAPSGTQVHQQKGPPLPRPRVQPKPPHGAAENSLSPSSN", "values": [{"measurement": "% PE+ in H1 UD", "setting": "[1]", "result": 0.039, "unit": "%"}, {"measurement": "% PE+ in PGCs", "setting": "D3.5 SOX17-GFP+ PGCs", "result": 0, "unit": "%"}, {"measurement": "% PE+ in non-PGCs", "setting": "D3.5 SOX17-GFP- non-PGCs", "result": 0, "unit": "%"}]}, {"molecule": "CD5 (protein, UniProt P06127 25-495, looked up) T-cell surface glycoprotein …: RLSWYDPDFQARLTRSNSKCQGQLEVYLKDGWHMVCSQSWGRSSKQWEDPSQASKVCQRLNCGVPLSLGPFLVTYTPQSSIICYGQLGSFSNCSHSRNDMCHSLGLTCLEPQKTTPPTTRPPPTTTPEPTAPPRLQLVAQSGGQHCAGVVEFYSGSLGGTISYEAQDKTQDLENFLCNNLQCGSFLKHLPETEAGRAQDPGEPREHQPLPIQWKIQNSSCTSLEHCFRKIKPQKSGRVLALLCSGFQPKVQSRLVGGSSICEGTVEVRQGAQWAALCDSSSARSSLRWEEVCREQQCGSVNSYRVLDAGDPTSRGLFCPHQKLSQCHELWERNSYCKKVFVTCQDPNPAGLAAGTVASIILALVLLVVLLVVCGPLAYKKLVKKFRQKKQRQWIGPTGMNQNMSFHRNHTATVRSHAENPTASHVDNEYSQPPRNSHLSAYPALEGALHRSSMQPDNSSDSDYDLHGAQRL", "values": [{"measurement": "% PE+ in H1 UD", "setting": "[1]", "result": 0.2, "unit": "%"}]}, {"molecule": "CD50 (protein, UniProt P32942 30-547, looked up) Intercellular adhesion …: QEFLLRVEPQNPVLSAGGSLFVNCSTDCPSSEKIALETSLSKELVASGMGWAAFNLSNVTGNSRILCSVYCNGSQITGSSNITVYRLPERVELAPLPPWQPVGQNFTLRCQVEDGSPRTSLTVVLLRWEEELSRQPAVEEPAEVTATVLASRDDHGAPFSCRTELDMQPQGLGLFVNTSAPRQLRTFVLPVTPPRLVAPRFLEVETSWPVDCTLDGLFPASEAQVYLALGDQMLNATVMNHGDTLTATATATARADQEGAREIVCNVTLGGERREARENLTVFSFLGPIVNLSEPTAHEGSTVTVSCMAGARVQVTLDGVPAAAPGQPAQLQLNATESDDGRSFFCSATLEVDGEFLHRNSSVQLRVLYGPKIDRATCPQHLKWKDKTRHVLQCQARGNPYPELRCLKEGSSREVPVGIPFFVNVTHNGTYQCQASSSRGKYTLVVVMDIEAGSSHFVPVFVAVLLTLGVVTIVLALMYVFREHQRSGSYHVREESTYLPLTSMQPTEAMGEEPSRAE", "values": [{"measurement": "% PE+ in H1 UD", "setting": "[1]", "result": 51.8, "unit": "%"}]}, {"molecule": "CD276 (protein, UniProt Q5ZPR3 29-534, looked up) CD276 antigen: LEVQVPEDPVVALVGTDATLCCSFSPEPGFSLAQLNLIWQLTDTKQLVHSFAEGQDQGSAYANRTALFPDLLAQGNASLRLQRVRVADEGSFTCFVSIRDFGSAAVSLQVAAPYSKPSMTLEPNKDLRPGDTVTITCSSYQGYPEAEVFWQDGQGVPLTGNVTTSQMANEQGLFDVHSILRVVLGANGTYSCLVRNPVLQQDAHSSVTITPQRSPTGAVEVQVPEDPVVALVGTDATLRCSFSPEPGFSLAQLNLIWQLTDTKQLVHSFTEGRDQGSAYANRTALFPDLLAQGNASLRLQRVRVADEGSFTCFVSIRDFGSAAVSLQVAAPYSKPSMTLEPNKDLRPGDTVTITCSSYRGYPEAEVFWQDGQGVPLTGNVTTSQMANEQGLFDVHSVLRVVLGANGTYSCLVRNPVLQQDAHGSVTITGQPMTFPPEALWVTVGLSVCLIALLVALAFVCWRKIKQSCEEENAGAEDQDGEGEGSKTALQPLKHSDSKEDDGQEIA", "values": [{"measurement": "% PE+ in H1 UD", "setting": "[1]", "result": 99.8, "unit": "%"}, {"measurement": "% PE+ in PGCs", "setting": "D3.5 SOX17-GFP+ PGCs", "result": 0.9946, "unit": "%"}, {"measurement": "% PE+ in non-PGCs", "setting": "D3.5 SOX17-GFP- non-PGCs", "result": 0.9994, "unit": "%"}]}, {"molecule": "CD263 (protein, UniProt O14798 26-236, looked up) Tumor necrosis factor …: ATTARQEEVPQQTVAPQQQRHSFKGEECPAGSHRSEHTGACNPCTEGVDYTNASNNEPSCFPCTVCKSDQKHKSSCTMTRDTVCQCKEGTFRNENSPEMCRKCSRCPSGEVQVSNCTSWDDIQCVEEFGANATVETPAAEETMNTSPGTPAPAAEETMNTSPGTPAPAAEETMTTSPGTPAPAAEETMTTSPGTPAPAAEETMITSPGTPA", "values": [{"measurement": "% PE+ in H1 UD", "setting": "[1]", "result": 1.91, "unit": "%"}, {"measurement": "% PE+ in PGCs", "setting": "D3.5 SOX17-GFP+ PGCs", "result": 0.02857, "unit": "%"}, {"measurement": "% PE+ in non-PGCs", "setting": "D3.5 SOX17-GFP- non-PGCs", "result": 0.1537, "unit": "%"}]}, {"molecule": "CD30 (protein, UniProt P28908 19-595, looked up) Tumor necrosis factor …: FPQDRPFEDTCHGNPSHYYDKAVRRCCYRCPMGLFPTQQCPQRPTDCRKQCEPDYYLDEADRCTACVTCSRDDLVEKTPCAWNSSRVCECRPGMFCSTSAVNSCARCFFHSVCPAGMIVKFPGTAQKNTVCEPASPGVSPACASPENCKEPSSGTIPQAKPTPVSPATSSASTMPVRGGTRLAQEAASKLTRAPDSPSSVGRPSSDPGLSPTQPCPEGSGDCRKQCEPDYYLDEAGRCTACVSCSRDDLVEKTPCAWNSSRTCECRPGMICATSATNSCARCVPYPICAAETVTKPQDMAEKDTTFEAPPLGTQPDCNPTPENGEAPASTSPTQSLLVDSQASKTLPIPTSAPVALSSTGKPVLDAGPVLFWVILVLVVVVGSSAFLLCHRRACRKRIRQKLHLCYPVQTSQPKLELVDSRPRRSSTQLRSGASVTEPVAEERGLMSQPLMETCHSVGAAYLESLPLQDASPAGGPSSPRDLPEPRVSTEHTNNKIEKIYIMKADTVIVGTVKAELPEGRGLAGPAEPELEEELEADHTPHYPEQETEPPLGSCSDVMLSVEEEGKEDPLPTAASGK", "values": [{"measurement": "% PE+ in H1 UD", "setting": "[1]", "result": 75.2, "unit": "%"}, {"measurement": "% PE+ in PGCs", "setting": "D3.5 SOX17-GFP+ PGCs", "result": 0, "unit": "%"}, {"measurement": "% PE+ in non-PGCs", "setting": "D3.5 SOX17-GFP- non-PGCs", "result": 0.0001415, "unit": "%"}]}, {"molecule": "CD69 (protein, UniProt Q07108 1-199, looked up) Early activation antigen CD69: MSSENCFVAENSSLHPESGQENDATSPHFSTRHEGSFQVPVLCAVMNVVFITILIIALIALSVGQYNCPGQYTFSMPSDSHVSSCSEDWVGYQRKCYFISTVKRSWTSAQNACSEHGATLAVIDSEKDMNFLKRYAGREEHWVGLKKEPGHPWKWSNGKEFNNWFNVTGSDKCVFLKNTEVSSMECEKNLYWICNKPYK", "values": [{"measurement": "% PE+ in H1 UD", "setting": "[1]", "result": 0.13, "unit": "%"}]}, {"molecule": "CD314 (protein, UniProt P26718 1-216, looked up) NKG2-D type II integral …: MGWIRGRRSRHSWEMSEFHNYNLDLKKSDFSTRWQKQRCPVVKSKCRENASPFFFCCFIAVAMGIRFIIMVTIWSAVFLNSLFNQEVQIPLTESYCGPCPKNWICYKNNCYQFFDESKNWYESQASCMSQNASLLKVYSKEDQDLLKLVKSYHWMGLVHIPTNGSWQWEDGSILSPNLLTIIEMQKGDCALYASSFKGYIENCSTPNTYICMQRTV", "values": [{"measurement": "% PE+ in H1 UD", "setting": "[1]", "result": 0.36, "unit": "%"}, {"measurement": "% PE+ in PGCs", "setting": "D3.5 SOX17-GFP+ PGCs", "result": 0, "unit": "%"}, {"measurement": "% PE+ in non-PGCs", "setting": "D3.5 SOX17-GFP- non-PGCs", "result": "6.622E-05", "unit": "%"}]}, {"molecule": "CD317 (protein, UniProt Q10589 1-161, looked up) Bone marrow stromal antigen 2: MASTSYDYCRVPMEDGDKRCKLLLGIGILVLLIIVILGVPLIIFTIKANSEACRDGLRAVMECRNVTHLLQQELTEAQKGFQDVEAQAATCNHTVMALMASLDAEKAQGQKKVEELEGEITTLNHKLQDASAEVERLRRENQVLSVRIADKKYYPSSQDSS", "values": [{"measurement": "% PE+ in H1 UD", "setting": "[1]", "result": 99.4, "unit": "%"}, {"measurement": "% PE+ in PGCs", "setting": "D3.5 SOX17-GFP+ PGCs", "result": 0.7568, "unit": "%"}, {"measurement": "% PE+ in non-PGCs", "setting": "D3.5 SOX17-GFP- non-PGCs", "result": 0.8957, "unit": "%"}]}, {"molecule": "CD95 (protein, UniProt P25445 26-335, looked up) Tumor necrosis factor …: QVTDINSKGLELRKTVTTVETQNLEGLHHDGQFCHKPCPPGERKARDCTVNGDEPDCVPCQEGKEYTDKAHFSSKCRRCRLCDEGHGLEVEINCTRTQNTKCRCKPNFFCNSTVCEHCDPCTKCEHGIIKECTLTSNTKCKEEGSRSNLGWLCLLLLPIPLIVWVKRKEVQKTCRKHRKENQGSHESPTLNPETVAINLSDVDLSKYITTIAGVMTLSQVKGFVRKNGVNEAKIDEIKNDNVQDTAEQKVQLLRNWHQLHGKKEAYDTLIKDLKKANLCTLAEKIQTIILKDITSDSENSNFRNEIQSLV", "values": [{"measurement": "% PE+ in H1 UD", "setting": "[1]", "result": 78.2, "unit": "%"}]}]}
